# According to PubChem BioAssay AID540256 (National Center for Advancing Translational Sciences (NCATS), 2011):
# About 3,700 (1.2%) of roughly 300,000 compounds were called active. The shares of active, inactive and inconclusive entries below differ from those in the screen. Calls follow the shape of the full dose curve; tested in HEK293 cells. A potency beside an inconclusive call is a rough fit, not a confirmed value.
# Test: qHTS for Inhibitors of binding or entry into cells for Lassa Virus; also: nearly all actives have a fitted effect of over 50% in size
# Details: Lassa virus pseudotype entry inhibition, cell reporter; series mostly up to 37.9 µM
# Potency is read from the fitted curve at half-maximal effect.
row,Compound,Potency
1,COc1ccccc1N(C)S(=O)(=O)c1ccc(C(=O)Nc2ccncc2)cc1,inactive
2,COc1cc(-c2nc(-c3ccccc3)c(-c3ccc(F)cc3)[nH]2)cc2c1OCO2,"inconclusive: 20.6 µM [inhibitor, single point]"
3,Cc1nc(SCC(=O)NCCc2ccccc2)n[nH]1,inactive
4,CCn1cnc2cc(NCc3ccc(N(C)C)cc3)ccc21,"inconclusive: 2 µM [activator, partial curve, poor fit]"
5,N=C(N)SCc1cccc2ccccc12,"inconclusive: 14.6 µM [inhibitor, single point]"
6,C=CCn1c(SCc2nc3c(c(=O)[nH]c(=O)n3CCCC)n2CCC)nnc1-c1ccccc1,"inconclusive: 10 µM [inhibitor, partial curve]"
7,FC(F)(F)c1cccc(Cc2noc(CN3CCC(c4ccncc4)CC3)n2)c1,"inconclusive: 10 µM [inhibitor, partial curve]"
8,O=c1c(O)c(-c2cccs2)oc2ccccc12,inactive
9,O=C(NCC(=O)N(c1ccccc1)C(C(=O)NC1CCCCC1)c1cccnc1)c1ccco1 (centres undefined),inactive
10,COc1ccc(OC)c(/C=N/NC(=S)NCCc2ccccc2)c1,"inconclusive: 35.5 µM [inhibitor, single point]"
11,O=C(NC(=S)Nc1ccc(N2CCOCC2)c(Cl)c1)c1cncc(Br)c1,inactive
12,COc1ccc(NC(=O)C(CCCCNC(=O)OC(C)(C)C)NC(=O)OCc2ccccc2)cc1 (centres undefined),active: 2.06 µM
13,CCC(C(=O)OCC(=O)Nc1cc(Cl)cc(Cl)c1)c1ccccc1 (centres undefined),"inconclusive: 16.4 µM [inhibitor, partial curve, poor fit]"
14,Clc1cccc(/C(Cc2nc3ccccc3[nH]2)=N\Nc2ccccc2)c1,inactive
15,CC(C)c1ccc(NC(=O)CN(C)S(=O)(=O)c2ccc3c(c2)n(C)c(=O)c(=O)n3C)cc1,inactive
16,CCc1cc2c(=O)c(-c3cscn3)coc2cc1O,"inconclusive: 35.5 µM [activator, single point]"
17,CCNc1nc(NC(C)C)nc(SCCOc2ccc(C)cc2)n1,"inconclusive: 22.4 µM [inhibitor, partial curve, poor fit]"
18,COc1ccc(N2CCN(C(=O)c3cccnc3SCc3cccc(Br)c3)CC2)cc1,active: 12.6 µM
19,COc1ccc(C(=O)C(C)[n+]2ccc(-c3nnc4n3CCCCC4)cc2)cc1 (centres undefined),inactive
20,CCN(CC(=O)NCc1cccs1)C(=O)c1ccc([N+](=O)[O-])o1,inactive
21,COc1ccc(C(=O)c2no[n+]([O-])c2C(=O)c2ccc(OC)cc2)cc1,"inconclusive: 35.5 µM [inhibitor, single point]"
22,CCC(C)NS(=O)(=O)c1ccc(S(=O)(=O)N(CC(=O)Nc2ccccc2)Cc2ccco2)cc1 (centres undefined),"inconclusive: 14.6 µM [inhibitor, partial curve, poor fit]"
23,Cc1ccc2c(c1)-c1onc(C(=O)N(C)c3ccc(F)cc3)c1CO2,inactive

# Structures shown so far with bromine:
row,Compound,Potency
11,O=C(NC(=S)Nc1ccc(N2CCOCC2)c(Cl)c1)c1cncc(Br)c1,inactive
18,COc1ccc(N2CCN(C(=O)c3cccnc3SCc3cccc(Br)c3)CC2)cc1,active: 12.6 µM

# The results go on.

row,Compound,Potency
1,CCOc1ccc(C(=O)N2CCc3ccccc32)cc1OCC,"inconclusive: 7.94 µM [inhibitor, partial curve, poor fit]"
2,CCN1CCN(c2ccc(S(=O)(=O)N3CCCCC3)cc2NC(=O)c2ccc([N+](=O)[O-])o2)CC1,"inconclusive: 15.8 µM [inhibitor, single point]"
3,CCC(=O)NC(NC(=S)Nc1ccc(S(N)(=O)=O)cc1)C(Cl)(Cl)Cl (centres undefined),inactive
4,CCOC(=O)C1=C(O)/C(=C\c2ccc(CNS(=O)(=O)c3ccc(Br)cc3)o2)N=C1C,"inconclusive: 17.8 µM [inhibitor, partial curve, poor fit]"
5,Cc1ccc(N(CC(=O)Nc2ccccc2C(=O)NCc2ccco2)S(=O)(=O)c2ccccc2)cc1C,"inconclusive: 35.5 µM [inhibitor, single point]"
6,CCOC(=O)c1c(C)[nH]c(C(=O)OCC(=O)NC(C)C)c1C,"inconclusive: 16.4 µM [activator, single point]"
7,Cc1ccccc1NC(=O)c1ccc(F)c(S(=O)(=O)N2CCN(c3ccccn3)CC2)c1,"inconclusive: 18.3 µM [inhibitor, partial curve]"
8,COc1ccc(C(=O)NC(=S)Nc2ccc(S(=O)(=O)Nc3cc(C)on3)cc2)cc1OC,inactive
9,CC1=C(C(=O)Nc2ccccc2C)C(c2ccc[nH]2)n2ncnc2N1 (centres undefined),inactive
10,Cc1ccc(-c2noc(CNS(=O)(=O)c3ccccc3)n2)cc1,inactive
11,CCCCn1c(SCc2ccccc2C#N)nc2c(sc3ccccc32)c1=O,inactive
12,O=C(c1ccc(Cl)c(S(=O)(=O)N2CCCC2)c1)N1CCN(c2ccc(F)cc2)CC1,"inconclusive: 17.8 µM [inhibitor, single point]"
13,COc1ccccc1-n1c(CNc2ccc(F)cc2)nnc1SCC(=O)Nc1cc(C)on1,"inconclusive: 6.31 µM [inhibitor, single point]"
14,O=C(Cc1ccc(F)cc1)NCCc1csc2nc(-c3ccc(Cl)cc3)nn12,inactive
15,COc1c(OC(C)=O)ccc(/C=C/c2ccc3cccc(OCc4ccccc4)c3n2)c1[N+](=O)[O-],"inconclusive: 17.8 µM [inhibitor, single point]"
16,CCOC(=O)Nc1c(Cl)[nH]c(=O)n(C)c1=O,"inconclusive: 14.1 µM [activator, single point]"
17,COC(=O)c1cc(NC(=O)CCc2c(C)nc3nc(C)nn3c2C)cc(C(=O)OC)c1,inactive
18,COCCn1c(=S)[nH]c2cc(C(=O)N3CCc4ccccc43)ccc2c1=O,"inconclusive: 18.3 µM [inhibitor, single point]"
19,COc1ccc(N(CC(=O)NCCC2=CCCCC2)S(=O)(=O)c2ccc(C)cc2)cc1OC,"inconclusive: 1.78 µM [inhibitor, full curve]"
20,O=C(CSc1nnnn1-c1ccc(O)cc1)Nc1ccc(N2CCOCC2)c(Cl)c1,"inconclusive: 5.17 µM [inhibitor, full curve]"
21,COc1ccc(/C=C2/SC(=S)N(CCCC(=O)N3CCN(C)CC3)C2=O)cc1,inactive
22,Cc1[nH]nc2c1C(c1cccnc1)N(c1ccc(Br)cc1)C2=O (centres undefined),"inconclusive: 6.51 µM [inhibitor, partial curve, poor fit]"
23,COc1ccc(C)cc1NC(=O)C(=O)N/N=C(\C)CC(=O)Nc1cccnc1,"inconclusive: 35.5 µM [activator, partial curve, poor fit]"

# Look-ups from above.
# Potency, Cc1[nH]nc2c1C(c1cccnc1)N(c1ccc(Br)cc1)C2=O (centres undefined) reads inconclusive: 6.51 µM [inhibitor, partial curve, poor fit]
# Potency, COCCn1c(=S)[nH]c2cc(C(=O)N3CCc4ccccc43)ccc2c1=O reads inconclusive: 18.3 µM [inhibitor, single point]
# Potency, CCN1CCN(c2ccc(S(=O)(=O)N3CCCCC3)cc2NC(=O)c2ccc([N+](=O)[O-])o2)CC1 reads inconclusive: 15.8 µM [inhibitor, single point]

# Carrying on.

row,Compound,Potency
1,CCn1cc(CN2CCC(n3nccc3NC(=O)C3CCCC3)CC2)c(C)n1,"inconclusive: 0.794 µM [inhibitor, single point]"
2,Nn1c(Nc2ccccc2)nc2ccccc2c1=O,inactive
3,CCOC(=O)CCCNC(=O)CCNC(=O)c1ccc(OCC)cc1,"inconclusive: 14.6 µM [activator, partial curve]"
4,Nc1nc2ccccc2n1C(=O)CCc1ccccc1,inactive
5,CCCCN(c1ccccc1)S(=O)(=O)c1cc2c3c(c1)C(C)C(=O)N3CCC2 (centres undefined),"inconclusive: 6.31 µM [inhibitor, full curve]"
6,CCCC(=O)OC(C(=O)Nc1cc(C(F)(F)F)ccc1Cl)c1ccccc1 (centres undefined),"inconclusive: 7.31 µM [inhibitor, partial curve, poor fit]"
7,COc1ccc(OCc2nc(N)nc(Nc3cccc(C)c3C)n2)cc1,inactive
8,O=C(NCc1ccc2c(c1)CCN2C(=O)c1ccncc1)c1cccc(F)c1,inactive
9,Cc1cc2oc3c(c(=O)c2cc1C)C(c1cccc(Br)c1)N(Cc1ccco1)C3=O (centres undefined),"inconclusive: 35.5 µM [inhibitor, single point]"
10,CCC(O)(CC)C(=O)N=Nc1c(O)[nH]c2ccccc12,"inconclusive: 31.6 µM [activator, single point]"
11,COc1ccc(S(=O)(=O)Nc2cccc(C)c2C)c2cccnc12,"inconclusive: 10 µM [inhibitor, partial curve, poor fit]"
12,Cc1ccc(C(C)C)c(OCCNC(=O)c2ccccc2O)c1,"inconclusive: 3.16 µM [inhibitor, partial curve, poor fit]"
13,COc1ccc(CNC(=O)C2CCN(S(=O)(=O)Cc3ccccc3)CC2)cc1,inactive
14,CCOC(=O)C1=NN(C(=O)Nc2cccc(C(F)(F)F)c2)C2C(=O)N(c3cccc(C(F)(F)F)c3)C(=O)C12 (centres undefined),"inconclusive: 0.562 µM [activator, partial curve, poor fit]"
15,CCOc1ccc(OCCC(=O)N(CCC(C)C)c2c(N)n(Cc3ccccc3)c(=O)[nH]c2=O)cc1,"inconclusive: 6.31 µM [inhibitor, single point]"
16,Cc1cccc(OCC(=O)NCCCNC(=O)c2ccc(C)nc2)c1,inactive
17,CCOc1ccc2[nH]c(=O)c(CN(Cc3cccs3)Cc3nnnn3C(C)(C)CC)cc2c1,"inconclusive: 29.1 µM [inhibitor, single point]"
18,CCc1ccc(S(=O)(=O)Nc2ccc3oc(C)c(C(=O)OCCOC)c3c2)cc1,inactive
19,CC(=O)c1cccc(NC(=O)c2ccccc2N(C)S(=O)(=O)c2ccc(C)cc2)c1,"inconclusive: 3.98 µM [inhibitor, partial curve]"
20,C/C(=N\NC(=O)c1ccccc1F)c1ccc2c(c1)Nc1ccccc1S2,"inconclusive: 3.55 µM [inhibitor, partial curve]"
21,CC1CN(C(=S)NC(=O)c2ccc([N+](=O)[O-])cc2)CC(C)O1 (centres undefined),inactive
22,O=C(CSc1nc2ccccc2n1CC(=O)N1CCCC1)N1CCN(C(=O)c2ccco2)CC1,inactive
23,COc1cc(/C=N/NC(=O)C(=O)NCc2ccco2)ccc1O,"inconclusive: 3.16 µM [activator, single point]"
